Laboratory results published in the supplement of paper PMC10735217.
This is one part of the list. Single values are uncertain here, since repeats match poorly.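 In a drug-repurposing library screen, luminescence reads luciferase driven by eight TEAD-binding elements, stably integrated into human kidney-derived cells. Compounds scoring over five robust Z scores above the plate mean are called hits.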

System: HEK293A TEAD-LUC reporter
Test: TEAD-luciferase reporter activity (YAP activation), robust Z score vs plate; higher = stronger YAP/TEAD activation
Details: 24 h

Row | SMILES | TEAD-luciferase reporter activity (compound concentration: 200 nM) | TEAD-luciferase reporter activity (compound concentration: 10 uM) | TEAD-luciferase reporter activity (compound concentration: 2 uM)
1 | CC(C)(O/N=C(\C(=O)N[C@@H]1C(=O)N2C(C(=O)[O-])=C(C[n+]3ccccc3)CS[C@H]12)c1csc(N)n1)C(=O)O [Ceftazidime hydrate] | inactive: 0.728 | inactive: -0.723 | –
2 | Cc1cc(/C=C/c2ccc3cc(N(C)C)ccc3[n+]2C)c(C)n1-c1ccccc1 [Pyrvinium pamoate] | inactive: -0.673 | inactive: 2.01 | inactive: -1.08
3 | CC(C)(CCCCOCCCCC(C)(C)C(=O)O)C(=O)O | inactive: -0.574 | inactive: 2.43 | inactive: -0.604
4 | CCC1=C(C)CN(C(=O)NCCc2ccc(S(=O)(=O)NC(=O)N[C@H]3CC[C@H](C)CC3)cc2)C1=O [glimepiride] | – | – | inactive: -1.53
5 | CCC1=C(C)CN(C(=O)NCCc2ccc(S(=O)(=O)NC(=O)N[C@H]3CC[C@H](C)CC3)cc2)C1=O | inactive: -2.17 | inactive: -0.57 | –
6 | CCCC(=O)O[C@]1(C(=O)CO)CC[C@H]2[C@@H]3CCC4=CC(=O)CC[C@]4(C)[C@H]3[C@@H](O)C[C@@]21C [hydrocortisone-17-butyrate] | inactive: -1.83 | inactive: 1.48 | inactive: 1.37
7 | N=C(N)NC(=N)NCCc1ccccc1 | inactive: 1.45 | inactive: 1.18 | inactive: 2.24
8 | CCCNC(=O)NS(=O)(=O)c1ccc(Cl)cc1 | inactive: -0.131 | inactive: 0.0151 | –
9 | CCCNC(=O)NS(=O)(=O)c1ccc(Cl)cc1 [Chlorpropamide] | – | – | inactive: -1.87
10 | c1cc(OCCN2CCCCC2)cc(-c2n[nH]c3ccc(-c4ncn[nH]4)cc23)c1 | inactive: 0.749 | inactive: 3.18 | inactive: 2.09
11 | NS(=O)(=O)c1cc(C2(O)NC(=O)c3ccccc32)ccc1Cl (stereo not given) [Chlorthalidone] | inactive: 0.154 | inactive: 1.79 | –
12 | NS(=O)(=O)c1cc(C2(O)NC(=O)c3ccccc32)ccc1Cl (stereo not given) [Chlortalidone] | – | – | inactive: -1.31
13 | CCCC(=O)O[C@]1(C(=O)CCl)[C@@H](C)C[C@H]2[C@@H]3CCC4=CC(=O)C=C[C@]4(C)[C@@]3(F)C(=O)C[C@@]21C [clobetasone butyrate] | inactive: -0.896 | inactive: -0.179 | inactive: 1.09
14 | Cc1nc2ccccc2n1C1CC2CCC(C1)N2CCC1(c2cccc(F)c2)CCN(C(=O)c2cc(S(=O)(=O)NC(C)(C)C)c(F)cc2Cl)CC1 (stereo not given) | inactive: 0.653 | inactive: 2.65 | inactive: -0.911
15 | CCCCN1CC[C@H](c2ccc(N(C)C)cc2)[C@@H](COc2ccc(C(F)(F)F)cc2)C1 | inactive: 0.00913 | inactive: -2.6 | inactive: -1.84

From entry 9 up to 10, as listed above:
Row | SMILES | TEAD-luciferase reporter activity (compound concentration: 200 nM) | TEAD-luciferase reporter activity (compound concentration: 10 uM) | TEAD-luciferase reporter activity (compound concentration: 2 uM)
9 | CCCNC(=O)NS(=O)(=O)c1ccc(Cl)cc1 [Chlorpropamide] | – | – | inactive: -1.87
10 | c1cc(OCCN2CCCCC2)cc(-c2n[nH]c3ccc(-c4ncn[nH]4)cc23)c1 | inactive: 0.749 | inactive: 3.18 | inactive: 2.09
